Binding data for 2 molecules are collected here from article PMC4574351, “Tubulin cofactors and Arl2 are cage-like chaperones that regulate the soluble αβ-tubulin pool for microtubule dynamics” (eLife, 2015).

For experiment [1], the target named is T1, Tubulin cofactor E (TBCE), S. cerevisiae Pac2p (S. cerevisiae) (UniProt P39937).
T1 sequence: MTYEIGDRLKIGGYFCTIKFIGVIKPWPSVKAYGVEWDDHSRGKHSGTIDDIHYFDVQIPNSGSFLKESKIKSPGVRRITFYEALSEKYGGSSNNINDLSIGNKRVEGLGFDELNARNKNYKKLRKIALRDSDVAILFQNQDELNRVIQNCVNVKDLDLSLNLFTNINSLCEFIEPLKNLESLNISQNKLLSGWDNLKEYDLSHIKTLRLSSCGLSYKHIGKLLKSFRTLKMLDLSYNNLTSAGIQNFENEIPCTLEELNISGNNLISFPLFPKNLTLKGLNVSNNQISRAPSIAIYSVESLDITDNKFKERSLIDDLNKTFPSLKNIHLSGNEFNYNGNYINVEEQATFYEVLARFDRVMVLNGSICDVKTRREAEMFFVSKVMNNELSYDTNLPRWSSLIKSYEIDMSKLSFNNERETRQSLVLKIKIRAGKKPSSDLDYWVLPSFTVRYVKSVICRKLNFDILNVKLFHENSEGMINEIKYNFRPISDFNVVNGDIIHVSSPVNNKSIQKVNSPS
The experiment in a line: negative-stain EM single-particle reconstruction; SEC purified complexes at 0.5 mg/ml in 50 mM HEPES, 100 mM KCl, 0.1 mM GTP, 3 mM β-mercaptoethanol; 1% uranyl formate; 24 Å maps with docked models of subunits or their homologs; both purified.

Experiment [2] deals with Tubulin cofactor C (TBCC), S. cerevisiae Cin2p (S. cerevisiae) (UniProt P46670). The experiment in a line: SEC-MALS; WTC-03S5 column; purified TBC-DEG (subunits co-expressed and co-purified), αβ-tubulin, TBCC and their complexes; ternary complex with GDP·ALFx (wild type) or GTP (Q73L); both purified. For orientation: Size exclusion chromatography separates by hydrodynamic size, large species first.

These are yes or no findings as the source states them, for the method shown. Some entries that bind do so weakly or less than the wild type.

B1: Arl2 Gln73Leu (Q73L), S. cerevisiae Cin4p, GTP-locked mutant (enzyme, UniProt P39110 1-191)
chain: MGLLSIIRKQKLRDKEIRCLILGLDNSGKSTIVNKLLPKDEQNNDGIMPTVGFQIHSLMIKDVTISLWDIGGLRTLRPFWDNYFDKTQAMIWCIDVSLSMRFDETLQELKELINRDENRIGYECAVIVVLNKIDLVEDKSELHRRCLLVESELKCLFKPDIRIELVKCSGVTGEGIDNLRDRLVESCHFTQ
Take B1: the binding result in experiment [1] was “binds”.

B2: Tubulin cofactor C (TBCC), S. cerevisiae Cin2p (protein, UniProt P46670 1-268)
chain: MDFTAKIKELERELSETSDYKTLQKKTISLRSELNTLSHSLTSYEKEHFSNDIENVLKSINAKLSESKGKKRLFSFKQKNSSSAVHKNVERTELANAPAYTTTLKKHYVLEKGDSAFENLEFCTVTSTTDYSGNSALSGSLCFRNITKCVINLQRIFFQTGSIFITDCTDSIIFLRSPSDKDFQIRLRDLKNCKILIEKLSPSIDCKQVVIIENCHKCIFNASTRDHLIIQDFSNPFQSEETEDNSAFAFEDFDICNKDTMQLFRAYL
On to B2, for which the binding result in experiment [2] was “no binding”.
